About 1,400 (4.5%) of roughly 31,000 sequences were called active.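 The calls were made as follows: active = median seed-adjusted z-score above 1 or below -1; inactive = the rest.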 The list shows a part of the results.

The experiment is described as follows: Novel Modifiers of Survival Motor Neuron (SMN) Protein: Gene Identification via Genome-wide siRNA Screen.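 Also: luminescence tracks full-length SMN protein made from the SMN2 reporter.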 As to conditions: HEK293T SMN2-luciferase reporter, siRNA knockdown, 72 h; actives lie on both sides. In outline: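 Genome-wide siRNA screen (10418 genes, 3 siRNAs each, 1 pmol per well) by reverse transfection in HEK293T cells stably carrying an SMN2-luciferase reporter; luminescence after 72 hours, normalized to negative-control siRNA, log10-transformed, MAD-scored.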
(Reporter assays use an easily measured gene product as a stand-in for the process of interest.)
Consider GAGCAGAAAGGAUCACAGATT against TOR1A, for which the median seed-adjusted z-score is inactive: -0.231. In the case of GCUGUAAGCUAAGAACCCATT against SARS2, the median seed-adjusted z-score is inactive: 0.524. With GCACUCUGCUCAACACCUATT against GJA5, the median seed-adjusted z-score was inactive: 0.707.

Take GGAUCGAGACUUCAUAUCATT against CLSTN2: the median seed-adjusted z-score is inactive: 0. For the sequence GAACAUCCGUGAGCAAGGATT against KCNJ8, the median seed-adjusted z-score is inactive: 0.329.

On to CUAUCGAACGAGUAGCUUUTT against KCTD3, for which the median seed-adjusted z-score is inactive: 0.603. Regarding CCUUCGCCGUCGUCUCAAATT against MCOLN1, the median seed-adjusted z-score is inactive: -0.522. For GAACUUCCUCCUGUACAGATT against B3GNT3, the median seed-adjusted z-score was inactive: 0.439.

In the case of GCAUUGCAUGAGAAGGUCATT against 5-Sep, the median seed-adjusted z-score was inactive: -0.0749.

Regarding GCUCCUGUAUGAAUGCAAUTT against FBP2, the median seed-adjusted z-score was inactive: 0.

As to CAGGUUGCAUGGUCAAUAATT against DHRS12, the median seed-adjusted z-score was inactive: 0.118.

CCACUUUCCAUUUGCGAUATT against HEATR1: the median seed-adjusted z-score is inactive: -0.115.

GCUUAUGAACUGCUUCAUUTT against ST3GAL6: the median seed-adjusted z-score is inactive: -0.548.

Turning to CUUUCGUAUUUCAACAAGATT against CBLL1, the median seed-adjusted z-score was inactive: -0.466. For AAAUAUCAACGAGAACUUUTT against DNPEP the value was inactive: -0.293; for GAUCUGCAUCAAUACUGAATT against FBLN5, inactive: -0.0832; for GACUUCUCCGGAAUCCGUATT against ADAM10, inactive: 0.14. As for GGACCUACUAUGUCUCCUATT against GRINA, the median seed-adjusted z-score is inactive: 0.175. Consider CCACGAAAGUCAUUACCUUTT against GTPBP1, for which the median seed-adjusted z-score is inactive: -0.18. For GCCUCGUGGUUUGACAACATT against CTDSP1 the value was inactive: 0.28.

As for GAUAAAGACUCUGCACAAATT against ZCRB1, the median seed-adjusted z-score was inactive: 0.265. On to GACGAGCUAUUUGCCGAGATT against RAP2B, for which the median seed-adjusted z-score is inactive: -0.22. As to AGCGGAUGGGUGUCACAAATT against FUT5, the median seed-adjusted z-score was inactive: 0.

As to CCUUAAAAAUUACCGAAAATT against CDKN3, the median seed-adjusted z-score was inactive: -0.03. As for CGAAGUACCAAAAAGUUGATT against USP21, the figure is inactive: 0.248; as for GGUAAGAUGUCGAUCCUUATT against NAE1, inactive: -0.453. Regarding GAUACAGUUUUGGAUGAUATT against ASNSD1, the median seed-adjusted z-score is inactive: 0.437.

In the case of GGUUUGGUCGUAUUCCUAATT against NR1D2, the median seed-adjusted z-score is inactive: 0.0523. As for GACCAACAUGAGUACUCAATT against ZNF560, the figure is inactive: 0.0927; as for GCAUAUCUUCUAACUUGCATT against EVI1, inactive: 0. For GGAGUUACGAUAGCCGGAATT against DIAPH1, the median seed-adjusted z-score was inactive: 0.145. As to AGAUAGUGCGGGUGACUCATT against ACSS1, the median seed-adjusted z-score was inactive: 0.243. In the case of CUUGCAGCAUAUUACCUAUTT against MAN1A2, the median seed-adjusted z-score was inactive: 0.554. For GCUACUCACCUGAUAAAGATT against PLA2G7 the value was inactive: 0.292; for GAGUUACCAGAACAUUUGATT against RFK, inactive: -0.00532. With CAAACAAAGUUCGUUCCAATT against STX1A, the median seed-adjusted z-score is inactive: 0. For CGCAGUCCGAGGACAUGUUTT against FOXD3, the median seed-adjusted z-score is inactive: 0.224. Consider CAGUAAGAAGGGUUCAAUATT against BTK, for which the median seed-adjusted z-score was inactive: -0.0648. For CUUCAGGAGUUAUUACGGATT against MTMR11 the value was inactive: -0.0244. As for CCACGAAUCCUCCAUGAAATT against PRM3, the median seed-adjusted z-score was inactive: 0.249. Take CCCUAUAGCUUUACAUGCUTT against SDK1: the median seed-adjusted z-score was inactive: 0.604. Take CAAUACCAAUUGAUGGAAATT against ALDH1A1: the median seed-adjusted z-score is inactive: -0.355. In the case of GAAUUGUUUUAGCUAACGATT against PGM2, the median seed-adjusted z-score was inactive: 0.355. With CGACCACAUUUACCGACAATT against NR5A2, the median seed-adjusted z-score was inactive: -0.275.

Consider GGCAAAUAUCAGAUCAAAATT against AP2A2, for which the median seed-adjusted z-score was inactive: 0.158.

In the case of GGUCUGUGCCUGUCAAUAATT against HBM, the median seed-adjusted z-score was inactive: 0. On to CGCUUCAAGAGGUUCGGAATT against MLPH, for which the median seed-adjusted z-score is active: -1.2. On to GGAUUGCCCGUAAUUUCUATT against NDUFB5, for which the median seed-adjusted z-score was inactive: -0.122.

AGACCUACACGGUACGCGUTT against THAP11: the median seed-adjusted z-score was active: -1.36. For ACAAGAAGCUUGGAGAGAUTT against FN3KRP the value was inactive: 0.00247; for GGUAAAAGCUGUCACAAUATT against TRDN, inactive: 0.195; for AGCAGAAGAUGGUAGAUGATT against VIL1, inactive: 0.368.

As for CGGUCAUUGUAGCUAUAGATT against ABCC9, the median seed-adjusted z-score is inactive: 0.376. Take GCAUCCUCAUUUGCCCACATT against FGR: the median seed-adjusted z-score was inactive: 0.596. Turning to CAACGACAGAACUAACAGATT against SENP6, the median seed-adjusted z-score is active: -1.03. As for CCAUCUCAGAUGUCCUAAATT against GCH1, the median seed-adjusted z-score was inactive: 0.569.

Turning to AGCCCUCGGUGAUUGAGAATT against MCAT, the median seed-adjusted z-score is inactive: 0. For GUUCAGUGCUGCAAGGUCATT against AMZ1, the median seed-adjusted z-score was inactive: 0.205. For CCAACUACCGUGACAAUGUTT against PCDH12 the value was inactive: 0.0177. Consider AGAUCGUGGACUUCGCUAATT against NR1H2, for which the median seed-adjusted z-score is inactive: 0.069. CAAUCAGAGUAGAAGUCGATT against DNAJA2: the median seed-adjusted z-score is inactive: 0.

For the sequence GCAACUCUUUACAAACCUATT against PCDHGC3, the median seed-adjusted z-score is inactive: 0. As to GGGUGGAGAUGCACGUUAATT against RDH5, the median seed-adjusted z-score is inactive: 0.305. Regarding CUUUCCUCAUGUUUAUGAUTT against COX8C, the median seed-adjusted z-score was inactive: -0.0513.

As to CAGUGACUGUUCCCAAUGATT against RACGAP1, the median seed-adjusted z-score was inactive: 0. Take GAUUUUAGCACUACAACAATT against ZNF664: the median seed-adjusted z-score was active: 1.08. With CCGCCUCAUUUUUAACCCATT against HTR3D, the median seed-adjusted z-score is inactive: 0.776. As to UCAGUAUAUUUGUUUCGUATT against GTPBP3, the median seed-adjusted z-score is inactive: -0.197. For CUACAAGACUAAGAACGCATT against E4F1 the value was inactive: 0.698. As to CCUUAGUAAAGAUAUAGGATT against ZNF527, the median seed-adjusted z-score was inactive: 0. On to AGGUCAUUGCUGAGAAGUATT against FMNL1, for which the median seed-adjusted z-score was inactive: -0.3. With GGUAACCAGUUAAUGGAAATT against GJA9, the median seed-adjusted z-score was inactive: -0.00119. On to CGGUAUUACCAACCUUAUATT against LDHAL6B, for which the median seed-adjusted z-score is inactive: -0.192. As for GGUUUCAACUGGACUUCUATT against MFSD5, the median seed-adjusted z-score was inactive: 0.205. As for GGUCACCACCAAAUACGUUTT against B4GALNT2, the figure is inactive: -0.174; as for GAGCACCAGCAGUACGUGATT against GPER, inactive: 0.157. With GGACUGAAUCGGAGAUGGATT against BCL2L1, the median seed-adjusted z-score was inactive: 0.0801. For GGCGAAUUGUGGUCCUCAATT against SMPDL3B, the median seed-adjusted z-score is inactive: 0.0704. For CUAUUGUAAAAGUAUGGAATT against ARL6IP2, the median seed-adjusted z-score is inactive: 0.274.

As for CCAGUAGCCUCUAUAAGCATT against OPN4, the median seed-adjusted z-score was inactive: 0.167. With CCAAGAGCGAGAUCAUAGATT against KRT3, the median seed-adjusted z-score was inactive: 0.399. Take CAUUCACGGAGAUAAGAAATT against ALDH1L1: the median seed-adjusted z-score was inactive: 0.0289. In the case of CCUGUAGACUGGAAUGACATT against DHX36, the median seed-adjusted z-score is inactive: 0.165.

With AGACCAACCCUGGUACUUUTT against SRMS, the median seed-adjusted z-score is active: -1.58. In the case of GACACUGCAAUAAAAGGUATT against WIF1, the median seed-adjusted z-score is inactive: -0.521. GUGCAUGACAUAGCAGAAATT against ADCK5: the median seed-adjusted z-score was inactive: 0.958.

Regarding GGGCUGUUAUUUCAAGAAATT against GALNT13, the median seed-adjusted z-score was inactive: -0.0149.

As for GUAUUGCCUUUGUCAAGAATT against SNX19, the median seed-adjusted z-score was inactive: 0.67. In the case of CACUCUUACCUAUACCUUATT against NPY2R, the median seed-adjusted z-score was inactive: 0.121. Regarding GGAAUUCGAUGGGAACUUUTT against CACHD1, the median seed-adjusted z-score was inactive: 0.119. On to GGACGACCACGGCUACAUUTT against CRYAA, for which the median seed-adjusted z-score was active: -1.03. On to GGCUUUUUGCUACAGAUGATT against OSGEP, for which the median seed-adjusted z-score was inactive: 0.0178.

In the case of GCCGCAGCCUGAUUAUUGATT against CCS, the median seed-adjusted z-score is inactive: 0.0581.

For the sequence GGAAUGAUCAUGGUCGUGATT against CYSLTR1, the median seed-adjusted z-score is inactive: 0.364. Consider GCCGUGAUUACGUCCGUUATT against CCL22, for which the median seed-adjusted z-score is inactive: 0. AGGAGAUCGUCGACCUGGUTT against TUBA3C: the median seed-adjusted z-score was inactive: -0.0806. As to CGGCCUGUCAGCAAAGUUATT against MGST2, the median seed-adjusted z-score is inactive: 0.387.

In the case of CCUACACCAUAAAGAGUAATT against COL10A1, the median seed-adjusted z-score is inactive: -0.0291. With AGAACGACACCGUCAAGUATT against PROKR1, the median seed-adjusted z-score is inactive: -0.507.

Turning to GACUUGCACUGGGAACCAATT against NPNT, the median seed-adjusted z-score was inactive: 0.164. As for GCAAGUUUAUGCUAGCUCUTT against FMO5, the median seed-adjusted z-score was inactive: 0.0069.

In the case of GAAUGUCACCGGAAAUCCATT against RANGAP1, the median seed-adjusted z-score was inactive: -0.0379. As for CUACCGGAGUCAACAGUAATT against ARGFX, the median seed-adjusted z-score is inactive: 0.273. In the case of CCACCACUCCUUUCCCUAUTT against SCD, the median seed-adjusted z-score is inactive: -0.982. Consider GAAGAUCAGCAAACGCAAATT against NRF1, for which the median seed-adjusted z-score was inactive: 0.608. For AGAGCGACCUCACCACCAATT against RAB1B the value was active: 1.55; for GGAUUGAAGACGAUAUGGATT against ITGA6, inactive: -0.224. For CCACCAUUCUAAUCGAUUUTT against PPP2R3C, the median seed-adjusted z-score was inactive: 0.295.
